These are yes or no findings as the source states them, for the method shown. Binding seen in cells or lysates may run through a third protein. Binding can be weak; no strength is given. Sequences can lack the tags named with a protein.
Legend:
[1] = target: T1, GST-Slx9 (yeast (S. cerevisiae)) (UniProt P53251); assay: pull-down; GST fusion immobilised on GSH-Sepharose in PBSKMT, incubated with one purified protein (2 µM His6-Ran variant, or 0.5 µM Slx9 or Slx9-1) for 1 hr at 4°C, competing E. coli lysates present; Coomassie or Western; both purified
T1 sequence: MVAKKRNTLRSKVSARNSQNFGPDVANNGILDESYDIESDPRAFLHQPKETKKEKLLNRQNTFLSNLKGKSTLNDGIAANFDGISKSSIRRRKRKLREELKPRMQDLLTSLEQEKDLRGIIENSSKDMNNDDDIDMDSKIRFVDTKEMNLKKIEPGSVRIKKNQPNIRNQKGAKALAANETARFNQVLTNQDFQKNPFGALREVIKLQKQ

[2] = target: T2, GST-Kap123 (UniProt P40069); assay: as above
T2 sequence: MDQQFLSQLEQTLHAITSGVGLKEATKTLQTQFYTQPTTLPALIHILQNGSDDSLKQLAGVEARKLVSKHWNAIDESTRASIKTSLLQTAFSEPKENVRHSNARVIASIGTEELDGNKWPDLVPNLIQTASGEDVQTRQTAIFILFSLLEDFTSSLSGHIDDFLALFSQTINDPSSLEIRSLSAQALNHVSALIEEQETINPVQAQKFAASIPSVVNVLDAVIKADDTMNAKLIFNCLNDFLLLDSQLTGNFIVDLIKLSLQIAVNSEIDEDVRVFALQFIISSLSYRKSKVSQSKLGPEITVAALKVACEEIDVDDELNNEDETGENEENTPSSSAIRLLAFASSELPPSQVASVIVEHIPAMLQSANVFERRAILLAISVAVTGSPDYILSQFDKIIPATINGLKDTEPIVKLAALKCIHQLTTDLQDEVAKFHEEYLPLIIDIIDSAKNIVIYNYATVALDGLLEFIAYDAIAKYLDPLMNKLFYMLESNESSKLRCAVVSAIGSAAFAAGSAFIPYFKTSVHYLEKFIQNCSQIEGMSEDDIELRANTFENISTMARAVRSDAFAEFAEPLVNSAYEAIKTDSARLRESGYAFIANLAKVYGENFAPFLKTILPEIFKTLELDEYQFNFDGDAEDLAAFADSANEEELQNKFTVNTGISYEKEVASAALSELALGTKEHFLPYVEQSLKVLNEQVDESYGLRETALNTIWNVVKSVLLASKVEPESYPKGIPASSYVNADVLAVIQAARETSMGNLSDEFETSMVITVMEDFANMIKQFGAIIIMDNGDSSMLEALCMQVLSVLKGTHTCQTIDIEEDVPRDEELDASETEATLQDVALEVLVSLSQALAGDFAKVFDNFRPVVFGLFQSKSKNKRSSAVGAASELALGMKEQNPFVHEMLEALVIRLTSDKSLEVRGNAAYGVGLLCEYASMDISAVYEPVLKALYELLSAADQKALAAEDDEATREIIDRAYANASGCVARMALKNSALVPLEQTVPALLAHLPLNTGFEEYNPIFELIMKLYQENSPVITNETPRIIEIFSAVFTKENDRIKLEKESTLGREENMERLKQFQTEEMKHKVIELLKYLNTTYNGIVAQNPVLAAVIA

[3] = target: T1, GST-Slx9 (yeast (S. cerevisiae)); assay: pull-down; GST-Slx9 immobilised on GSH-Sepharose, incubated with excess of Rio2, unbound Rio2 washed away

Row | binding [1] | binding [2] | binding [3] | Substance
1 | binds | binds |  | His6-Ran∆C^QLGTP (yeast (S. cerevisiae)) (domain or fragment)
2 |  |  | binds | Rio2 (added in excess to GST-Slx9, Figure 5C) (yeast (S. cerevisiae))

— paper PMC4402694
